Test results: patent US5750332A (priority 1995, dated 1998)
Where a sequence shows no end group, the ends are not given.

Assay: Boc solid-phase peptide synthesis; PAM resin
Settings: whole synthesis, scale 0.5 mmol

In the case of KIKQIINMWQEVGKAMYA, the crude yield is reported as “approximately 95%”.
